Our source for the binding values is paper PMC7156110, “The MAPK substrate MASS proteins regulate stomatal development in Arabidopsis” (PLoS Genetics, 2020).

This assay concerns the target T1, YDA^KI (kinase-inactive YDA, K429R), split-YFP fusion for BiFC (Arabidopsis thaliana) (UniProt Q9CAD5).
T1 sequence: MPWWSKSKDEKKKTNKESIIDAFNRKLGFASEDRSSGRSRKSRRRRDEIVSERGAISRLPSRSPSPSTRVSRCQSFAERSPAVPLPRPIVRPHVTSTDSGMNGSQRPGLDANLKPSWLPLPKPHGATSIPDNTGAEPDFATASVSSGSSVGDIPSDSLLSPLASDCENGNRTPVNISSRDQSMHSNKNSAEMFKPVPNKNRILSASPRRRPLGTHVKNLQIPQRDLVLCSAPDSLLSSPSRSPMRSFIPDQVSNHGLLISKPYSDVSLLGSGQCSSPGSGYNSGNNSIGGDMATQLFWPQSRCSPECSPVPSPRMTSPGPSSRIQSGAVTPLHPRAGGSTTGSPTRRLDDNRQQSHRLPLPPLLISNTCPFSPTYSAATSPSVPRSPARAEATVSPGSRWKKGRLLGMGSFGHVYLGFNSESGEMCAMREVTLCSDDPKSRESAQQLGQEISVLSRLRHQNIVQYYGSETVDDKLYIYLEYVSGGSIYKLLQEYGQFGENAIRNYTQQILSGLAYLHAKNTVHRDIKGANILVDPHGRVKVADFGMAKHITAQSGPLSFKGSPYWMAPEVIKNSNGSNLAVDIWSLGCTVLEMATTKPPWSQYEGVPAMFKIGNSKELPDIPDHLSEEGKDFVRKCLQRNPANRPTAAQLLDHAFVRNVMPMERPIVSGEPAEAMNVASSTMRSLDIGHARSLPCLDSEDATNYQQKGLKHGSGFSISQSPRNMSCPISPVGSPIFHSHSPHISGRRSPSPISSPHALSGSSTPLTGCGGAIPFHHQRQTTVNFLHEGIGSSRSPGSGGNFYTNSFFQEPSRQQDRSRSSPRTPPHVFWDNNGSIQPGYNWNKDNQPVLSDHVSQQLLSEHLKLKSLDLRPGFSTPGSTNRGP
Kind of assay: split reporter; BiFC with split YFP in tobacco leaf epidermal cells; signal at the plasma membrane.

These are yes or no findings as the source states them, for the method shown. Binding seen in cells or lysates may run through a third protein. Binding can be weak; no strength is given. Tags and fused reporters may be left off the sequences shown.

As for “MASS3, split-YFP fusion for BiFC (Arabidopsis thaliana)”, the binding entry is “binds”.
